Experimental findings from the supplement of paper PMC12067093, “Discovery and optimisation of a covalent ligand for TRIM25 and its application to targeted protein ubiquitination” (Chemical Science, 2025) are described below.

Protein sequences, listed by entry. Tags and fused reporters are not part of them. Lines headed by an entry give the natural chain unless they say otherwise; changes in a name come on top.
UniProt Q8N1G2: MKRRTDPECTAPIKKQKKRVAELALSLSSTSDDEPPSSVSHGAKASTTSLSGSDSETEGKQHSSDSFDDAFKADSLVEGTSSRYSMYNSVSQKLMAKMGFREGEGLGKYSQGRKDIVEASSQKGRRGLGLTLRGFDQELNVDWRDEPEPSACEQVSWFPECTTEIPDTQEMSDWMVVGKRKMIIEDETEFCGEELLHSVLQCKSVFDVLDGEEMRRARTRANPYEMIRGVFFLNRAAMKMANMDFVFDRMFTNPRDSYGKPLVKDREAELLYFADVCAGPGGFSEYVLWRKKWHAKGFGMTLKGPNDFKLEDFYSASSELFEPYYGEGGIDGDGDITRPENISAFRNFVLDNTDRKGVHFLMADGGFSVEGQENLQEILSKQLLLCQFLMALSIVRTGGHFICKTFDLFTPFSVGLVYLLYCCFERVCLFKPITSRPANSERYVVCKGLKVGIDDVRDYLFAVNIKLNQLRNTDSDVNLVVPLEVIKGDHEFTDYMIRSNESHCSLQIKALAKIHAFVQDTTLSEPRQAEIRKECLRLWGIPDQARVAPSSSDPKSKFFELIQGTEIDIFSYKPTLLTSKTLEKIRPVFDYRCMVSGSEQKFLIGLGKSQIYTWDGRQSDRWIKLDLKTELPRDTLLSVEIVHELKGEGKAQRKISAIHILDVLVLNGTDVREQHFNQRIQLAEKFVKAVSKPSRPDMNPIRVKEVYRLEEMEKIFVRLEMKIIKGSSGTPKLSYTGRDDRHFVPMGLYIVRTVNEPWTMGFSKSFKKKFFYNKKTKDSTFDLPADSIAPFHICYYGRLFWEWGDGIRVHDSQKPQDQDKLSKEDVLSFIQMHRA
UniProt Q9Y678: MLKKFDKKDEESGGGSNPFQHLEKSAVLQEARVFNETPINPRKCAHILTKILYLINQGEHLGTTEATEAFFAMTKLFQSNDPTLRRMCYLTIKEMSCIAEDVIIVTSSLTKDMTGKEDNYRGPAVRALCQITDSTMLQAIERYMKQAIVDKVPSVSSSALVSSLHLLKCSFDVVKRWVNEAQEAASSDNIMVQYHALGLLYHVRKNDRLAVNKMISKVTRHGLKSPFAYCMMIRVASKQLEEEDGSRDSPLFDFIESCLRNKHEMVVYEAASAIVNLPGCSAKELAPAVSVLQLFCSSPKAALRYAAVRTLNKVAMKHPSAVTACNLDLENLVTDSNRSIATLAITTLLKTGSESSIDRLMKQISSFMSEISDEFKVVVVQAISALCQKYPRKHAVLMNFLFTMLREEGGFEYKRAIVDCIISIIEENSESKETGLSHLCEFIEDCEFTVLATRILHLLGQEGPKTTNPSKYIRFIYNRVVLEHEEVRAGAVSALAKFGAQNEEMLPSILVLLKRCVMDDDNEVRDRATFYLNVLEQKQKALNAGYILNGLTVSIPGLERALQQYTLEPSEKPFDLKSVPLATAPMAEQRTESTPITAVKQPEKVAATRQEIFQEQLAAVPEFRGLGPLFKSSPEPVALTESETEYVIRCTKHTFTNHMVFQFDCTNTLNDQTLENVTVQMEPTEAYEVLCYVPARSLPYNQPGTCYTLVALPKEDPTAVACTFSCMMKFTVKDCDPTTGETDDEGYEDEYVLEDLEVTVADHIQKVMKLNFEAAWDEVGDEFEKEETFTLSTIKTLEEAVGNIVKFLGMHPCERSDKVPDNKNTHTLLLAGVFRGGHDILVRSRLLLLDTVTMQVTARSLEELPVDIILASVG
UniProt Q12860: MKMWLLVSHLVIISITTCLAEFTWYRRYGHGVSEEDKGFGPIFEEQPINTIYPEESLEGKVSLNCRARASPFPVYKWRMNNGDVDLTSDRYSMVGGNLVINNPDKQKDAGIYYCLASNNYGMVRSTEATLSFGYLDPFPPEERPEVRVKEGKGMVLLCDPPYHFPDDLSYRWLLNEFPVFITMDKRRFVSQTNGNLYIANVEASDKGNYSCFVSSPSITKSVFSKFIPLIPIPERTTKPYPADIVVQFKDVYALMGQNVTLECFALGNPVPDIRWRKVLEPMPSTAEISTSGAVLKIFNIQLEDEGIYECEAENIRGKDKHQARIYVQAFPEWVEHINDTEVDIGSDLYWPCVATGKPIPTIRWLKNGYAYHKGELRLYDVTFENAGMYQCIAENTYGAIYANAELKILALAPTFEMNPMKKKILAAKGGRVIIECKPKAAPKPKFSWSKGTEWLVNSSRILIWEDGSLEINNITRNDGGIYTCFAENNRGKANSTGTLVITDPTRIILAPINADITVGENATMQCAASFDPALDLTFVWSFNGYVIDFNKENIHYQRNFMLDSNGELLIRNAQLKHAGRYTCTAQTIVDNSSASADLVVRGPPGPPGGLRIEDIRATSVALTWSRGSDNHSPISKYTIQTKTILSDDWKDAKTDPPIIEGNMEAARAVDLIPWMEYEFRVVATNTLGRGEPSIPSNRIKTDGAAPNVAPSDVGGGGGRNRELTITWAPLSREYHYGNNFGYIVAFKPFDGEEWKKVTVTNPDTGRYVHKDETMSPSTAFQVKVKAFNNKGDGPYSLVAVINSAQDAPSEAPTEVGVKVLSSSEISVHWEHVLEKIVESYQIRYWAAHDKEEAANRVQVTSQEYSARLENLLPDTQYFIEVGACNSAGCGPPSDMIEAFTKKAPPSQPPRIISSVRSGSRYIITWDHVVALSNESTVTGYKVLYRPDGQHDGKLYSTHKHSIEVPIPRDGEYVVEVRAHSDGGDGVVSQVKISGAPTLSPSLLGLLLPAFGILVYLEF
UniProt Q9H9A5, whole entry, looked up: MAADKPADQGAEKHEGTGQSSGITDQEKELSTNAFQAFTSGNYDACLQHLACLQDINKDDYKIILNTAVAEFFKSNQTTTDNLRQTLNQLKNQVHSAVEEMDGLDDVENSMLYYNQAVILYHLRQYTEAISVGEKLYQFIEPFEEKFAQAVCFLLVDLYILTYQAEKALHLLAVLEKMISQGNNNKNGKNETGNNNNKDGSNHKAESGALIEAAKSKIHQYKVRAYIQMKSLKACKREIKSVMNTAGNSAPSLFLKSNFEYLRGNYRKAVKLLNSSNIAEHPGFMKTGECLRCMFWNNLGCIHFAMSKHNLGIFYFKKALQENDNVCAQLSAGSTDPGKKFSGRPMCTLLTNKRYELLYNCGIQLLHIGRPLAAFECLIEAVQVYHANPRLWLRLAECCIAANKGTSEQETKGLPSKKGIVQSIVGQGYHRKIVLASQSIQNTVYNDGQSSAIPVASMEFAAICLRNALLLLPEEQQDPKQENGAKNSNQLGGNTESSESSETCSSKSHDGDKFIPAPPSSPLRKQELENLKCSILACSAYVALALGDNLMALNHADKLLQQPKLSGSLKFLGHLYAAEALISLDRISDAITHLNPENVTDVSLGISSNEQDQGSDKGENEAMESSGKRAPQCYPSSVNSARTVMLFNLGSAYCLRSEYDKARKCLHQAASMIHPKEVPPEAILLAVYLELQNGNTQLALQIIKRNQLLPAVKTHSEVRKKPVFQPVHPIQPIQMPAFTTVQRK
UniProt P21964: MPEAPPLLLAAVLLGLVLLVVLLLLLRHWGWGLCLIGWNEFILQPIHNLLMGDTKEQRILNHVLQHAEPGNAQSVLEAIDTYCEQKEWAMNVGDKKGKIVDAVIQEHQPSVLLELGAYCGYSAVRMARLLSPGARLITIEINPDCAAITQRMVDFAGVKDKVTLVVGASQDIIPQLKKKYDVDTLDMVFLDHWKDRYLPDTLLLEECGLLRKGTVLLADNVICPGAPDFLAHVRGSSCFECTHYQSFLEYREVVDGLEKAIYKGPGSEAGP
UniProt A5YKK6, whole entry, looked up: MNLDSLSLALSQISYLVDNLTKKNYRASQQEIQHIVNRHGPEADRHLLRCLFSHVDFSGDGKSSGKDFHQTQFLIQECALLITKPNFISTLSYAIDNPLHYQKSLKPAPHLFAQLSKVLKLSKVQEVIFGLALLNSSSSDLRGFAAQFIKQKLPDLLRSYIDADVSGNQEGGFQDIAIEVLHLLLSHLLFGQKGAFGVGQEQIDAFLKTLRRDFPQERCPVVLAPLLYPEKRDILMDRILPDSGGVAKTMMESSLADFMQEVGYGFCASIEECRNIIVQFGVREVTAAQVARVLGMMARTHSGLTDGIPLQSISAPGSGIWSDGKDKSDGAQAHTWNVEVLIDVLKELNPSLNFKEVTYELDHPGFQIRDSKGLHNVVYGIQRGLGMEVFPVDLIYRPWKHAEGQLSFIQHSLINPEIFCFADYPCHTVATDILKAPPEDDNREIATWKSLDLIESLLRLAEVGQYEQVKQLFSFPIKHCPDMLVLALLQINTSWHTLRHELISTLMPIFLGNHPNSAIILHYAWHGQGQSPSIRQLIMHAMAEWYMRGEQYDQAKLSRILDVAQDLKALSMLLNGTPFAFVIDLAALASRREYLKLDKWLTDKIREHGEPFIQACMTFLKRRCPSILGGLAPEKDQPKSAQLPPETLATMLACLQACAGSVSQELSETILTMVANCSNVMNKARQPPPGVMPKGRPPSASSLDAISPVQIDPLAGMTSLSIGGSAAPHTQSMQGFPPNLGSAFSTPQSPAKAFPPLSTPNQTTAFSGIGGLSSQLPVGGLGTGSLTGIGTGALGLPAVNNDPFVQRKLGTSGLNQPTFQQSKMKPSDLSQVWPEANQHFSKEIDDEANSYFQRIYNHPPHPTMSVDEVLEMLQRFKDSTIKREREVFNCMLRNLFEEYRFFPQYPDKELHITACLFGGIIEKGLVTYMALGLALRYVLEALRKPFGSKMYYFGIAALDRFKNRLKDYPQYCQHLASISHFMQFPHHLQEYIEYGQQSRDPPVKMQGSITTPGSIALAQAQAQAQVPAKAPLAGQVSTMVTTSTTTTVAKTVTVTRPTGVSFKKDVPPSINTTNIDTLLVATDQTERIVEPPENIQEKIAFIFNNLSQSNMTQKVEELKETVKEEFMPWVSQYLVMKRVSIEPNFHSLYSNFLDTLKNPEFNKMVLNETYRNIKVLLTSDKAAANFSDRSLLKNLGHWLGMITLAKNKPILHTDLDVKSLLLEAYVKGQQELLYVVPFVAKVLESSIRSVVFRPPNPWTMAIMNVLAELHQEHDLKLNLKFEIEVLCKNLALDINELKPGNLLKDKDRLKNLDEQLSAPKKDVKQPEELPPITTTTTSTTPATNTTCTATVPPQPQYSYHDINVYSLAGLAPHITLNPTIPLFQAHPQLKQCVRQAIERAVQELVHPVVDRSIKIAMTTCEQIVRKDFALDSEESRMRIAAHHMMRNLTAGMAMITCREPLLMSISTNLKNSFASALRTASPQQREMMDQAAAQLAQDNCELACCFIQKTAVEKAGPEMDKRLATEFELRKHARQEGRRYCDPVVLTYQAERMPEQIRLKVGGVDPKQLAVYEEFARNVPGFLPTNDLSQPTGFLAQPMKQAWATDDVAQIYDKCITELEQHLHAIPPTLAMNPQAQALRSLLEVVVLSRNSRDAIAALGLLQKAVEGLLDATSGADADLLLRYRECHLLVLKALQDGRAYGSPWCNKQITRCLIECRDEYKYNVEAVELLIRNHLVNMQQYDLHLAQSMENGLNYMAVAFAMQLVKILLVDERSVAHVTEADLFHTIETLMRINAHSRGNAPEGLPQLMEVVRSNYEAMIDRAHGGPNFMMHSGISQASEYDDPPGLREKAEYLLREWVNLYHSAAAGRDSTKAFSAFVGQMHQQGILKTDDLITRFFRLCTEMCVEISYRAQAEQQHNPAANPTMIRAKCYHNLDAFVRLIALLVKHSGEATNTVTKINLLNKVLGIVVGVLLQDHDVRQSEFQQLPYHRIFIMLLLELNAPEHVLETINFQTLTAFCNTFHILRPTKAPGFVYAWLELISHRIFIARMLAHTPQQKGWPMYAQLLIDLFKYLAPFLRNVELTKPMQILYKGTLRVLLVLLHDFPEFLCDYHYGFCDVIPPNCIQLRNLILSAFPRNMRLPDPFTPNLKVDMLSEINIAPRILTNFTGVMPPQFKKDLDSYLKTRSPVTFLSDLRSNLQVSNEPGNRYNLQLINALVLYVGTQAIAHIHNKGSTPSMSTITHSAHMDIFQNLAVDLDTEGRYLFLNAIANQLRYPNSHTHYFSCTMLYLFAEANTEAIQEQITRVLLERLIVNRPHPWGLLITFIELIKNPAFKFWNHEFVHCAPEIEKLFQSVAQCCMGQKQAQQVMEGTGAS
UniProt P09543: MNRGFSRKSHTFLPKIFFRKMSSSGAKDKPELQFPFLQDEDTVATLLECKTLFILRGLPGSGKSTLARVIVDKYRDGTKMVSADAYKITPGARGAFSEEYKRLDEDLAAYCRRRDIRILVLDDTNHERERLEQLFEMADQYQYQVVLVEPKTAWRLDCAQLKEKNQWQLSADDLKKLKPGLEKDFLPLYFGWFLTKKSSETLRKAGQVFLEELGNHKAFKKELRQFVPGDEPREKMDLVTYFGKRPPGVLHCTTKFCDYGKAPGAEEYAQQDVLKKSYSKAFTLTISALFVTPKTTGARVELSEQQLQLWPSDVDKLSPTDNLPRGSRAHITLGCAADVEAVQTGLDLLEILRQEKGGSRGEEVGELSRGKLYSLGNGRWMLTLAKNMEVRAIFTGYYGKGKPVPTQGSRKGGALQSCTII

Some of the results follow.
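Further: competitive chemoproteomic profiling in live THP-1 cells with an iodoacetamide desthiobiotin (IA-DTB) probe, comparing probe-labelled peptide intensities in compound-treated cells against DMSO-treated controls.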

Compound in one assay: CC1Cc2ccccc2N1C(=O)C1CCCN(C1)C(=O)CCl (mixture of isomers) [TRIM25 ligand 11 (diastereomer mixture)]
The experiment in a line: probe-labelled cysteine peptide fold change vs DMSO (competition) (log2 fold change); higher = less target engagement (more negative = stronger competition). The conditions noted are these: 10 µM; THP-1; incubation time: 4 h.
With “CMTR1_Q8N1G2_794_DSTFDLPADSIAPFHICYYGR (UniProt Q8N1G2)”, the “probe-labelled cysteine peptide fold change” value was determined as 0.0684. On the same count and under the same terms, in the case of “COPG1_Q9Y678_706_SLPYNQPGTCYTLVALPK (UniProt Q9Y678)” it was -0.0508; in that of “CNTN1_Q12860_158_GMVLLCDPPYHFPDDLSYR (UniProt Q12860)”, 0.255; in that of “COPB2_P35606_221+234_TCVQTLEGHAQNVSCASFHPELPIIITGSEDGTVR (UniProt P35606)”, 0.238. “CNOT10_Q9H9A5_399_LAECCIAANK (UniProt Q9H9A5)”: the “probe-labelled cysteine peptide fold change” value is -0.137. Still for that read-out and setting: the value for “COMT_P21964_223_GTVLLADNVICPGAPDFLAHVR (UniProt P21964)” was 0.021. The same measure, in the same setting: the value for “COMT_P21964_119_IVDAVIQEHQPSVLLELGAYCGYSAVR (UniProt P21964)” was -0.0429; that for “CNTRL_Q7Z7A1_1375_SLECEVEELHR (UniProt Q7Z7A1)” was -0.115; that for “CNOT1_A5YKK6_2359_LFQSVAQCCMGQK (UniProt A5YKK6)” was 0.232.

Turning to “CNOT2_Q9NZN8_175_SSPSIICMPK (UniProt Q9NZN8)”, the “probe-labelled cysteine peptide fold change” value is -0.102. As for “COG4_Q9H9E3_310_YLQVECDR (UniProt Q9H9E3)”, the “probe-labelled cysteine peptide fold change” value amounted to 0.101. The same measure, in the same setting: the value for “COPA_P53621_380_SGSKFPVFNMSYNPAENAVLLCTR (UniProt P53621)” was -0.452; that for “COMT_P21964_241_GSSCFECTHYQSFLEYR (UniProt P21964)” was 0.055; that for “COLGALT1_Q8NBJ5_203_AAYSNFWCGMTSQGYYK (UniProt Q8NBJ5)” was -0.0487. Turning to “COMT_P21964_238_GSSCFECTHYQSFLEYR (UniProt P21964)”, the “probe-labelled cysteine peptide fold change” value came out at 0.0434.

Take “COPG1_Q9Y678_44_CAHILTK (UniProt Q9Y678)”: the “probe-labelled cysteine peptide fold change” value was -0.0958. The same measure, in the same setting: in the case of “COPG1_Q9Y678_258_DSPLFDFIESCLR (UniProt Q9Y678)” it was 0.203.

On to “COLGALT1_Q8NBJ5_203_AAYSNFWCGMTSQGYYKR (UniProt Q8NBJ5)”, for which the “probe-labelled cysteine peptide fold change” value was -0.339. Take “COLGALT1_Q8NBJ5_228_GCFAVPMVHSTFLIDLR (UniProt Q8NBJ5)”: the “probe-labelled cysteine peptide fold change” value was 0.194. As for “CNPY3_Q9BT09_206_DTSCLAEQWSGK (UniProt Q9BT09)”, the “probe-labelled cysteine peptide fold change” value is -0.123.

Consider “CNN2_Q99439_215_CASQVGMTAPGTR (UniProt Q99439)”, for which the “probe-labelled cysteine peptide fold change” value was -0.0609.

The assay is the same for the next values; noted with them: 50 µM; THP-1; incubation time: 4 h.
On to “COMTD1_Q86VU5_45_EQCLLPPEDSR (UniProt Q86VU5)”, for which the “probe-labelled cysteine peptide fold change” value was -0.019.

Regarding “COPG1_Q9Y678_97_EMSCIAEDVIIVTSSLTK (UniProt Q9Y678)”, the “probe-labelled cysteine peptide fold change” value was -0.0498. Consider “COPG2_Q9UBF2_280_NKHEMVIYEAASAIIHLPNCTAR (UniProt Q9UBF2)”, for which the “probe-labelled cysteine peptide fold change” value turned out to be 0.0584. For the target “CNOT7_Q9UIV1_13_ICEVWACNLDEEMKK (UniProt Q9UIV1)”, the “probe-labelled cysteine peptide fold change” value amounted to 0.111.

Regarding “COQ3_Q9NZJ6_358_GETEELQANACTNPAVHEK (UniProt Q9NZJ6)”, the “probe-labelled cysteine peptide fold change” value is -0.163. Take “COPB2_P35606_104_CIAVHPTQPFILTSSDDMLIK (UniProt P35606)”: the “probe-labelled cysteine peptide fold change” value was determined as 0.0492. Regarding “COPS7B_Q9H9Q2_157_NQLLEVDFCIGR (UniProt Q9H9Q2)”, the “probe-labelled cysteine peptide fold change” value is -0.0864. As for COG1_Q8WTW3_318_LCSWFK (UniProt Q8WTW3), the “probe-labelled cysteine peptide fold change” value is -0.191. For the target “CMPK2_Q5EBM0_243_AVLDLVDQCPK (UniProt Q5EBM0)”, the “probe-labelled cysteine peptide fold change” value is -0.312. As for “COPE_O14579_212_CSPTLLLLNGQAACHMAQGR (UniProt O14579)”, the “probe-labelled cysteine peptide fold change” value was -0.302. Regarding “CNP_P09543_335_AHITLGCAADVEAVQTGLDLLEILRQEK (UniProt P09543)”, the “probe-labelled cysteine peptide fold change” value is -0.0579. As to “COPS4_Q9BT78_70_QLLTDFCTHLPNLPDSTAK (UniProt Q9BT78)”, the “probe-labelled cysteine peptide fold change” value is -0.0838. Still for that read-out and setting: in the case of “CNP_P09543_111_LDEDLAAYCR (UniProt P09543)” it was 0.202. As for “CNOT1_A5YKK6_1541_YCDPVVLTYQAER (UniProt A5YKK6)”, the “probe-labelled cysteine peptide fold change” value was found to be 0.0536. Regarding “COMT_P21964_207_DRYLPDTLLLEECGLLRK (UniProt P21964)”, the “probe-labelled cysteine peptide fold change” value was -0.022. Still for that read-out and setting: in the case of “CMC1_Q7Z7K0_77_ECLTAYYNDPAFYEECK (UniProt Q7Z7K0)” it was -0.045; in that of “CMTR1_Q8N1G2_794_DSTFDLPADSIAPFHICYYGR (UniProt Q8N1G2)”, 0.14; in that of “COPG1_Q9Y678_706_SLPYNQPGTCYTLVALPK (UniProt Q9Y678)”, -0.0255. Still for that read-out and setting: the value for “CNTN1_Q12860_158_GMVLLCDPPYHFPDDLSYR (UniProt Q12860)” was 0.299. On the same count and under the same terms, in the case of “COPB2_P35606_221+234_TCVQTLEGHAQNVSCASFHPELPIIITGSEDGTVR (UniProt P35606)” it was -0.14; in that of “CNOT10_Q9H9A5_399_LAECCIAANK (UniProt Q9H9A5)”, 0.183. Consider “COMT_P21964_223_GTVLLADNVICPGAPDFLAHVR (UniProt P21964)”, for which the “probe-labelled cysteine peptide fold change” value was -0.00178.
